Results taken from PubChem BioAssay AID1439 (NMMLSC, 2008).
Screen size: about 220,000 compounds; about 770 (0.35%) were called active. Inconclusive means that the source gave no clear call. Such entries were picked first, then a sample of the others. Cut-off read from the data, not from the text of the source: active = binding response below about 49% or above about 150%; inconclusive = no clear call, values can overlap the other calls; inactive = in between.

By UniProt entry, the sequences of proteins in these tests, tags left out.
UniProt P09471, whole entry, looked up: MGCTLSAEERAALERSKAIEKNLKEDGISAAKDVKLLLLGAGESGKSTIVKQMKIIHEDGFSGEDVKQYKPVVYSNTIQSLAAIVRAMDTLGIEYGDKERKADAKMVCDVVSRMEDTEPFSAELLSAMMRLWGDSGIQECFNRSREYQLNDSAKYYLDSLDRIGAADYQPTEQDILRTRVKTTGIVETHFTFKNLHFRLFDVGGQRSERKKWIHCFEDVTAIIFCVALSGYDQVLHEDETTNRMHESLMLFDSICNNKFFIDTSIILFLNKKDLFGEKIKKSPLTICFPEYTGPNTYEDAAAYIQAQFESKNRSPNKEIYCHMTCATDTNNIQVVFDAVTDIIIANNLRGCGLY

biological target: Guanine nucleotide-binding protein G(o) subunit alpha (Homo sapiens) (UniProt P09471); assay: RGS7-Galphao binding modulators, primary screen, biochemical, multiplexed bead flow cytometry (AID 1439); conditions: at 10 µM, actives lie on both sides;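 note: fluorescent Galphao held in activated GDP-AlF4 state binding bead-coupled RGS7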

| SMILES | binding response (% of control) |
| --- | --- |
| Cc1cc(=O)[nH]c(SCC(=O)N(CCC#N)c2ccccc2)c1C#N | inconclusive: 106% |
| Cc1cc(C(=O)COC(=O)c2cc(O)c3ccccc3c2O)c(C)n1CC1CCCO1 (stereo not drawn) | inconclusive: 64.5% |
| O=C(O)CCC(=O)N1CCN(c2ncccc2C(F)(F)F)CC1 | inconclusive: 77.2% |
| CN1CCCN(S(=O)(=O)c2ccc(Cl)c(Cl)c2)CC1 | inactive: 101% |
| Cc1ccc(S(=O)(=O)NNC(=O)CCCCC(=O)NNS(=O)(=O)c2ccc(C)cc2)cc1 | inactive: 99.6% |
| CCN(CC)c1ccc(N/C(N)=N/c2nc(C(F)(F)F)cc(=O)[nH]2)cc1 | inactive: 100% |
| CS(=O)(=O)N1CCN(c2ccc([N+](=O)[O-])c3cccnc23)CC1 | inconclusive: 127% |
| COc1ccccc1-c1ccc(=O)n(CC(=O)NCc2ccc3c(c2)OCO3)n1 | inactive: 103% |
| CCOC(=O)C1CCCN(C(=S)NC2CCCC2)C1 (stereo not drawn) | inconclusive: 117% |
| COc1ccc(N2C(=O)NC(NC(=O)c3cccnc3)(C(F)(F)F)C2=O)cc1 (stereo not drawn) | inconclusive: 135% |
| CC(/C=N/NC(=O)CSc1n[nH]c(=O)[nH]c1=O)=C\c1ccccc1 | inconclusive: 31.8% |
| CCNC(=O)Cn1cc(C(F)(F)F)cc(Cl)c1=O | inconclusive: 140% |
| Cc1ccc(-c2ccc(S(=O)(=O)N3CCCC3)cc2)cc1 | inconclusive: 129% |
| C=CCc1cc(Cl)ccc1OC(=O)Nc1cccc(Cl)c1 | inconclusive: 76% |
| CCOc1ccc(CCNC(=O)CN2C(=O)NC(CCSC)C2=O)cc1OCC (stereo not drawn) | inconclusive: 110% |
| O=C(O)c1cc2ncc(CCO)cn2n1 | inconclusive: 97.8% |
| N#Cc1c(-c2cccnc2)c2c([nH]c1=O)-c1ccccc1OC2 | inconclusive: 57.9% |
| COc1ccc2cc(C#N)c(SCC(=O)N3CC(=O)Nc4ccccc43)nc2c1 | inconclusive: 86.6% |
| CCOC(=O)c1cc(/C(C)=N/OC(=O)c2ccc(Cl)cc2)on1 | inconclusive: 77.7% |
| Cc1ccc(S(C)(=O)=N/C=C2\C(=O)c3sccc3N(C)S2(=O)=O)cc1 (stereo not drawn) | inconclusive: 103% |
| Clc1cccc(-c2nnc3n2CCCCC3)c1 | inconclusive: 98.3% |
| Cc1nnc(N/N=C/C(C)c2ccccc2)[nH]c1=O (stereo not drawn) | inconclusive: 132% |
| COc1ccc(C(NC(=O)C(C)C)c2ccc3cccnc3c2O)cc1 (stereo not drawn) | inconclusive: 88.3% |
| O=C(NCc1ccccc1C(F)(F)F)C1CC(c2cc(C(F)(F)F)cc(C(F)(F)F)c2)=NO1 (stereo not drawn) | inconclusive: 114% |

| SMILES | binding response (% of control) |
| --- | --- |
| CC(C)c1ccc(NC(=O)C2CC(=O)Nc3nc4ccccc4n32)cc1 (stereo not drawn) | inconclusive: 99.4% |
| Cc1onc(-c2c(F)cccc2Cl)c1C(=O)N1CCSCC1 | inconclusive: 97.5% |
| Cc1ccc(N=C2NC(=O)/C(=C/c3cccn3C)S2)c(C)c1 | inconclusive: -201% |
| COc1ccc(-c2cc(C(F)(F)F)nc(-n3ccnc3)n2)cc1 | inactive: 107% |
| N/C(=N\OC(=O)c1csnn1)c1ccc(C(F)(F)F)cc1 | inconclusive: 101% |
| Cc1nc(SCC(=O)O)c(C#N)c(C)c1CC(=O)c1ccccc1 | inactive: 99.2% |
| COc1ccc(C)cc1-n1nnnc1SCc1nc2ccccc2c(=O)[nH]1 | inconclusive: 111% |
| CCOC(=O)C1CCCN(C(=O)c2cccc([N+](=O)[O-])c2C)C1 (stereo not drawn) | inactive: 99.9% |
| O=C(CN1C(=O)NC2(CCCC2)C1=O)Nc1ccccc1-c1ccccc1 | inconclusive: 94.1% |
| CSc1nnc(C)c(=O)n1COC(=O)/C=C/c1ccc2c(c1)OCO2 | inconclusive: 80% |
| CNC(=O)c1c(NC(=O)C(C)C)sc2c1CCC2 | inconclusive: 126% |
| Oc1cccc2cnccc12 | inconclusive: 91.6% |
| COC(=O)C1=C(C)NC(C)=C(C(=O)OC)C1C(=O)OC(C)C(=O)c1ccccc1 (stereo not drawn) | inconclusive: 100% |
| Cc1cccc(Nc2nc(CC(=O)O)cs2)c1 | inconclusive: 93.8% |
| COc1ccc(/C=N/Nc2nnc(Cc3ccccc3)c(=O)[nH]2)cc1 | inconclusive: 336% |
| COc1ccc(CC(=O)OCC(=O)Nc2ccc3c(c2)OCO3)cc1 | inconclusive: 80.9% |
| CCOC(=O)c1c(NC(=O)c2cc(-c3ccc(O)cc3)on2)sc(C(C)=O)c1C | inactive: 122% |
| CC(=O)Cc1cc(=O)c2c(C)cc(O)c(C3OC(CO)C(O)C(O)C3O)c2o1 (stereo not drawn) | inconclusive: 102% |
| COc1ccc(/C=C/C(=O)Nc2ccccc2Cl)cc1S(=O)(=O)N1CCOCC1 | inconclusive: 93.8% |
| CCC(CO)Nc1nc2ccc(Cl)cc2c2ccccc12 (stereo not drawn) | inconclusive: 38.6% |
| CSc1ncccc1C(=O)OCC(=O)c1ccc2c(c1)NC(=O)CO2 | inconclusive: 153% |
| Cc1cc(C)c([N+](=O)[O-])cc1NCC(=O)N1CCN(c2ccccc2)CC1 | inconclusive: 108% |
| COc1ccccc1C(=O)NCC(=O)NC1CCCc2ccccc21 (stereo not drawn) | inconclusive: 113% |
| NC(N)=NS(=O)(=O)c1ccc(N=C2C(=O)Nc3ccccc32)cc1 | inconclusive: 202% |

| SMILES | binding response (% of control) |
| --- | --- |
| CN1N=C(C(C)(C)C)CSC1=Nc1ccc(F)cc1 | inconclusive: 67.9% |
| CCCCC(=O)N(CCC)CCC | inconclusive: 96.3% |
| Cc1cnc(N2C(=O)c3ccc([N+](=O)[O-])cc3C2=O)s1 | inconclusive: 94.4% |
| Nc1c(C(=O)N2CCOCC2)sc2nc(N3CCOCC3)c3c(c12)CCCC3 | inconclusive: 67.2% |
| COc1ccccc1-n1cnnc1SCC(=O)c1ccc[nH]1 | active: -11.1% |
| COC(=O)c1cnc2c(c(C)nn2C)c1OC | inconclusive: 136% |
| O=[N+]([O-])c1ccc(O)c(C=Nc2ccc3oc(Cc4ccc(Cl)cc4)nc3c2)c1 | inconclusive: 96.5% |
| COc1ccc(C(C)=O)cc1CSc1nnc(-c2ccncc2)n1C | inconclusive: 99.4% |
| O=C(COc1cccnc1[N+](=O)[O-])N1CCN(C(=O)c2ccco2)CC1 | inconclusive: 97.6% |
| CCn1ncc(NC(=S)Nc2ccc3c(c2)OCO3)c1C(N)=O | inactive: 99.8% |
| CCc1nnc(NC(=O)Cc2ccc(Br)cc2)s1 | inconclusive: 59.5% |
| COc1ccc(NC(=O)c2ccc(Cl)nc2)cc1S(=O)(=O)N1CCCCC1 | inconclusive: 75.1% |
| CC(C)[C@H](CO)Nc1nc(Nc2ccc(Cl)c(C(=O)O)c2)c2ncn(C(C)C)c2n1 | inconclusive: 112% |
| O=C(O)c1ccc(Sc2ccccn2)c([N+](=O)[O-])c1 | inconclusive: 86.7% |
| O=C(Nc1ccc2c(c1)C(=O)OC2)c1ccc(F)cc1F | inconclusive: 70% |
| CC(=O)C1=C(O)C(=O)N(c2nccs2)C1c1ccccc1F (stereo not drawn) | inconclusive: 101% |
| Cc1ccc2nc(SCC(=O)N3CCN(c4ccccc4)CC3)[nH]c2c1 | inconclusive: 168% |
| COC(=O)/C(=C\c1ccc(O)cc1)c1nc2ccccc2[nH]1 | inconclusive: 91.8% |
| CCCN(CCC)c1nc(Cl)nc(NCCN2CCOCC2)n1 | inactive: 104% |
| O=C(Nc1ccc2[nH]c(=O)[nH]c2c1)c1c(F)c(F)c(F)c(F)c1F | inactive: 101% |
| Cc1nc(/C(N)=N/OC(=O)c2ccccc2Cl)c(C(F)(F)F)o1 | inconclusive: 268% |
| Nc1nc(Sc2ccc([N+](=O)[O-])cc2[N+](=O)[O-])n[nH]1 | inconclusive: 41.6% |
| C=CCc1ccc(OCCN2CCc3ccccc3C2)c(OC)c1 | inconclusive: 122% |
| COc1ccccc1OCCC(=O)OCC(=O)Nc1cc(S(=O)(=O)N(C)C)ccc1Cl | inconclusive: 98.2% |

| SMILES | binding response (% of control) |
| --- | --- |
| CC(=O)NC1(C(F)(F)F)C(=O)Nc2c1c(=O)[nH]c(=O)n2CC(C)C (stereo not drawn) | inactive: 106% |
| Fc1cc2[nH]c(=S)[nH]c2cc1Cl | inconclusive: 95.4% |
| O=C1C(Cc2ccc3[nH]ccc3c2)NC(=S)N1c1ccccc1 (stereo not drawn) | inconclusive: -178% |
| COc1cc(C)c(NC(=S)Nc2cccc(Cl)c2C)cc1OC | inactive: 104% |
| O=C(C[n+]1ccc(/C=N/O)cc1)N1CCCCC1 | inconclusive: 111% |
| O=C(Nc1ccsn1)c1ccc(Cl)cc1Cl | inconclusive: 111% |
| CCCCN(C(=S)SC)C1CCS(=O)(=O)C1 (stereo not drawn) | inconclusive: 0.7% |
| O=C(COC(=O)Cc1ccccc1F)Nc1ccc2c(c1)OCO2 | inconclusive: 95.2% |
| Cc1cnc(NC(=O)CCN2C(=O)C3CCCCC3C2=O)s1 (stereo not drawn) | inconclusive: 95.4% |
| Brc1ccc(-c2cnco2)cc1 | inactive: 103% |
| CCOC(=O)C1=NN(c2ccc(C)cc2)CC1C(=O)OC (stereo not drawn) | inactive: 97.4% |
| CCNC(=S)NNC(=O)c1ccc(=O)n(Cc2ccccc2)c1 | inconclusive: 113% |
| NS(=O)(=O)c1ccc(NC(=O)CN2CCc3ccccc32)cc1 | inconclusive: 93% |
| Nc1ccc(/C=C/c2ccc3ncccc3c2)cc1 | inconclusive: 96.7% |
| NNC(=O)CCC(=O)Nc1ccccc1 | inconclusive: 103% |
| CCOC(=O)C1=NN(c2ccc(Cl)cc2)/C(=C/C2=NCCc3cc(OC)c(OC)cc32)S1 | inconclusive: 65.8% |
| CCOC(=O)C1(CC2CC2)CCN(Cc2cnc(-c3ccc(OC)cc3)nc2)CC1 | inactive: 97.8% |
| CC(C)(C)NC(=O)NC(=O)COC(=O)c1ccco1 | inactive: 106% |
| CCn1cc(CN2N=C(C)CC2c2ccccc2)c(C)n1 (stereo not drawn) | inactive: 98.2% |
| CN(CC(=O)N1CCN(Cc2ccccc2)CC1)S(=O)(=O)c1cccc2nsnc12 | inactive: 106% |
| Cc1cc(C)nc(SCc2ccc(C(=O)N/N=C3\CC(C)CC(C)(C)C3)cc2)n1 (stereo not drawn) | inactive: 95.2% |

Shown with tabs: 22 of the compounds above.
SMILES	binding response (% of control)
O=C(Nc1ccc2[nH]c(=O)[nH]c2c1)c1c(F)c(F)c(F)c(F)c1F	inactive: 101%
Cc1nc(/C(N)=N/OC(=O)c2ccccc2Cl)c(C(F)(F)F)o1	inconclusive: 268%
Nc1nc(Sc2ccc([N+](=O)[O-])cc2[N+](=O)[O-])n[nH]1	inconclusive: 41.6%
C=CCc1ccc(OCCN2CCc3ccccc3C2)c(OC)c1	inconclusive: 122%
COc1ccccc1OCCC(=O)OCC(=O)Nc1cc(S(=O)(=O)N(C)C)ccc1Cl	inconclusive: 98.2%
CC(=O)NC1(C(F)(F)F)C(=O)Nc2c1c(=O)[nH]c(=O)n2CC(C)C (stereo not drawn)	inactive: 106%
Fc1cc2[nH]c(=S)[nH]c2cc1Cl	inconclusive: 95.4%
O=C1C(Cc2ccc3[nH]ccc3c2)NC(=S)N1c1ccccc1 (stereo not drawn)	inconclusive: -178%
COc1cc(C)c(NC(=S)Nc2cccc(Cl)c2C)cc1OC	inactive: 104%
O=C(C[n+]1ccc(/C=N/O)cc1)N1CCCCC1	inconclusive: 111%
O=C(Nc1ccsn1)c1ccc(Cl)cc1Cl	inconclusive: 111%
CCCCN(C(=S)SC)C1CCS(=O)(=O)C1 (stereo not drawn)	inconclusive: 0.7%
O=C(COC(=O)Cc1ccccc1F)Nc1ccc2c(c1)OCO2	inconclusive: 95.2%
Cc1cnc(NC(=O)CCN2C(=O)C3CCCCC3C2=O)s1 (stereo not drawn)	inconclusive: 95.4%
Brc1ccc(-c2cnco2)cc1	inactive: 103%
CCOC(=O)C1=NN(c2ccc(C)cc2)CC1C(=O)OC (stereo not drawn)	inactive: 97.4%
CCNC(=S)NNC(=O)c1ccc(=O)n(Cc2ccccc2)c1	inconclusive: 113%
NS(=O)(=O)c1ccc(NC(=O)CN2CCc3ccccc32)cc1	inconclusive: 93%
Nc1ccc(/C=C/c2ccc3ncccc3c2)cc1	inconclusive: 96.7%
NNC(=O)CCC(=O)Nc1ccccc1	inconclusive: 103%
CCOC(=O)C1=NN(c2ccc(Cl)cc2)/C(=C/C2=NCCc3cc(OC)c(OC)cc32)S1	inconclusive: 65.8%
CCOC(=O)C1(CC2CC2)CCN(Cc2cnc(-c3ccc(OC)cc3)nc2)CC1	inactive: 97.8%

Laid out differently: two of the compounds above
SMILES	binding response (% of control)
Cc1cccc(Nc2nc(CC(=O)O)cs2)c1	inconclusive: 93.8%
NS(=O)(=O)c1ccc(NC(=O)CN2CCc3ccccc32)cc1	inconclusive: 93%
